Data from publication PMC4266540.
The exact form of at least one protein or probe is not confirmed. No signal at the amounts used counts as a negative. Protein sequences can lack the tags named with them.

Target: T1, AraC (MSMEG_0307) (Mycobacterium smegmatis mc2155) (UniProt A0QP84)
T1 sequence (looked up, limits assumed): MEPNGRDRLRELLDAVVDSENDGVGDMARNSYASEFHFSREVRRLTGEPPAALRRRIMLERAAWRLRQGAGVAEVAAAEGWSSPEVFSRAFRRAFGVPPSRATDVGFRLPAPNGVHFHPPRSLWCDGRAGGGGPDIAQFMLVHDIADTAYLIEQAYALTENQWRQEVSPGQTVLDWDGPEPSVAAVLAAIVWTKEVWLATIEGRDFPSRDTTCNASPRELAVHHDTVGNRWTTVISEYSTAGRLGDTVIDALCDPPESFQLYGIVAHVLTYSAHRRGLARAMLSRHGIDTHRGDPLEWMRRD
Assay: EMSA
Conditions: 10 mM MgCl2; EMSA: 20 mM Tris-HCl pH 8, 75 mM NaCl, 10 mM MgCl2, 100 ng DNA in 10 ul, room temperature 30 min; native PAGE (5% in Methods, 8% in legend), ethidium bromide; recombinant protein; protein details: His6 with thrombin site (pET28b(+), N-terminal); probe letters rebuilt from the primers and the genome

Sequence: AGTGGAACTCCGAGGCGTAGCTGTTGCGCGCCATGTCGCCGACACCGTCGTTCTCGGAGTCGACGACGGCGTCGAGCAGTTCACGCAGCCGGTCGCGCCCGTTCGGTTCCACACTCACGTTCACCGAGTATGGTCGGCGCGCCGGGGTCAGGACATGACTTTTCTTGCTGTGATCCCCCGGCTCAGGTGTCGAGCACCTCGGCGACACGTGCCTGGACGTCACGGCCGGCCAGATCGCCGAGGTCGATGCCGAACCGGTTGACGATGGCGTCGAGCACCTGTGCCGCGCTGTCGAACCGGATGCGCTCGGTCGCACCGGACCGGTGGACCGCCAGGTTGC (double strand) [Motif 2 fragment]
- binding result: no binding

Sequence: CGATCGCGTGCAATGTGCCGAGATCGGGACGCGGCCGCCCGTCGAGGCCGATCCGCGCGAGATACCCGCTGAGGTCCATCGCCATGCCTGCCATCGTCCAACCTCGACAGCAGTTCAGGTCAAGTAGGATGGAGAACTAGAACACGTTCCAATTCACGTCAGGGGGACCCCCGTGGCCGCTACCGATACCGACCCAGGTGAGATCACCAAGTGGGATCCCGGCCTCACCGAGAAGGTCATGGGCTGGCTGCGCCCGCTCATCAAGGGGTATCACCGGGCCGAGGTGCACGGCCTCGACACGTTCCCCAAC (double strand) [Motif 1 fragment]
- binding result: binds
